Source: article doi:10.1101/2025.02.06.636770
Construct, isoform or probe ends are uncertain for at least one entry.

Test system: OsVOZ1-MBP
Assay: EMSA

Row | Sequence | binding result
1 | AGCCAGTGGCGATAAGTAAACTGAGTGGGCAAACAACTTATCGCCACTGGCT (double strand) [JAZ5-EMSA] | binds
2 | AGCCAGTGGCGATAAGGCCCACAATCTCACGTGGGTCTTATCGCCACTGGCT (double strand) [JAZ15-EMSA] | binds
3 | AGCCAGTGGCGATAAGCCCACCCCACCCCACCTTATCGCCACTGGCT (double strand) [CCCAC-EMSA] | binds
4 | AGCCAGTGGCGATAAGCGTACTCCCACCCACCCCGGCTTATCGCCACTGGCT (double strand) [JAZ14-EMSA] | binds
5 | AGCCAGTGGCGATAAGCCATGTGGGCCCCACATTTCCTTATCGCCACTGGCT (double strand) [JAZ11-EMSA] | binds
6 | AGCCAGTGGCGATAAGAAATGTGGGGCCCACATGGCCTTATCGCCACTGGCT (double strand) [JAZ9-EMSA] | binds
7 | AGCCAGTGGCGATAAGCATAGTATCCCACAACCAAACTTATCGCCACTGGCT (double strand) [JAZ12-EMSA] | binds
